The source of these data is ChEMBL document CHEMBL3045722, “Synthesis, calcium-channel blocking activity, and conformational analysis of some novel 1,4-dihydropyridines: application of PM3 and DFT computational methods” (Med Chem Res, 2012).

By UniProt entry, the sequences of proteins in these tests, tags left out.
UniProt O35505, whole entry: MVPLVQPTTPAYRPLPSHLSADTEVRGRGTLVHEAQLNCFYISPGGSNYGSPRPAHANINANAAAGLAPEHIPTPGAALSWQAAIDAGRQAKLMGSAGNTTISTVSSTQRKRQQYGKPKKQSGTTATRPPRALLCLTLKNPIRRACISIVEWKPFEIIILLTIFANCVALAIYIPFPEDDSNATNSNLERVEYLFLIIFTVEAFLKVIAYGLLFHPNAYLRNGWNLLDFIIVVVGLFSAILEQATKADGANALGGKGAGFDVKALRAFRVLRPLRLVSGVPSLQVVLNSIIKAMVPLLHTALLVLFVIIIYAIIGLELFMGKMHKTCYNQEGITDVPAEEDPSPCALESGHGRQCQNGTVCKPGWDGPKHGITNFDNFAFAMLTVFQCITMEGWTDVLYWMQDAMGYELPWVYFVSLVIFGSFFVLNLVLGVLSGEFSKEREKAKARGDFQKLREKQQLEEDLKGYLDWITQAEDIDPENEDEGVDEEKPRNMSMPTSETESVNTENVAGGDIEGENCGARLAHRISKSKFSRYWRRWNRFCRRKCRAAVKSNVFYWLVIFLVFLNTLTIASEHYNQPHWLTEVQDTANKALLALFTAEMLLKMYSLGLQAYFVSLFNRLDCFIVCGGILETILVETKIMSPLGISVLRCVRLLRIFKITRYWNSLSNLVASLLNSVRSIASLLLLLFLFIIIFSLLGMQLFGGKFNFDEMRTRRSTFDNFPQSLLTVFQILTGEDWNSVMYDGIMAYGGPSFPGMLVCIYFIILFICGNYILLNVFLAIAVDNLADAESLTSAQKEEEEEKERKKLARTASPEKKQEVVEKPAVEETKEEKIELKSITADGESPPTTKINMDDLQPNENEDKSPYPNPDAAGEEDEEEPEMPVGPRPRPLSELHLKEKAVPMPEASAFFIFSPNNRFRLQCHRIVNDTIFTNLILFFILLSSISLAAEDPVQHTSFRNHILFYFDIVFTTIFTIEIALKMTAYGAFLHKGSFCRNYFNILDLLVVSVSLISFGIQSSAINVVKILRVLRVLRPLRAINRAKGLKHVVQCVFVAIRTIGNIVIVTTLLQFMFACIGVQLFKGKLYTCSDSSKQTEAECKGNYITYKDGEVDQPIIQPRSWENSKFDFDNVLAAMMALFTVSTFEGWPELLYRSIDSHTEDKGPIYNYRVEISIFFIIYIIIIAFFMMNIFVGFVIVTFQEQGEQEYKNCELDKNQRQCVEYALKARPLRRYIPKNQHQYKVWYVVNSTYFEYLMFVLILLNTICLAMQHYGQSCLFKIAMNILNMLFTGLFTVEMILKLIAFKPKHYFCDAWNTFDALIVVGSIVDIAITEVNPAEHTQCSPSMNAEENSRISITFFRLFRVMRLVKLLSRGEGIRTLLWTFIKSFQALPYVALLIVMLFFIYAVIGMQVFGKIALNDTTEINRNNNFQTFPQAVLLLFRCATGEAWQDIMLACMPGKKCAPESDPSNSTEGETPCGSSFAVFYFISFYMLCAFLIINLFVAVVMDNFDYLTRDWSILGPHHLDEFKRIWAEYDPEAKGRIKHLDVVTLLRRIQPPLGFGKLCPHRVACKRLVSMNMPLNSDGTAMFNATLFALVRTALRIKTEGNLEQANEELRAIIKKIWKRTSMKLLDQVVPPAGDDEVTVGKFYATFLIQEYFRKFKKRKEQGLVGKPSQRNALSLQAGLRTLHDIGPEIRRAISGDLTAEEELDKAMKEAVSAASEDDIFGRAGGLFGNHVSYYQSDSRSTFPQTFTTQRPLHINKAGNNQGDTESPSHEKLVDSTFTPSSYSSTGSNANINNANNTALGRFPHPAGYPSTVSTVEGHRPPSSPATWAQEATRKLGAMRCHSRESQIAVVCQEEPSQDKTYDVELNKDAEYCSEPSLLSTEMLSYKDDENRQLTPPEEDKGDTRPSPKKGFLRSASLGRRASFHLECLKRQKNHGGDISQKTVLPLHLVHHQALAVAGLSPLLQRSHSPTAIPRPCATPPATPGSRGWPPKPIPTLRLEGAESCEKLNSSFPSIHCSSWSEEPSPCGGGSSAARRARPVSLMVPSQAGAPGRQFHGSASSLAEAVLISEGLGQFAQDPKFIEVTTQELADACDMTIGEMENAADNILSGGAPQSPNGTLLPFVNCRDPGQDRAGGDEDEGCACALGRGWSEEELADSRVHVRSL

pIC50: −log10 of the molar value.

For orientation: pIC50 means the IC50 on a negative log10 scale, so that one unit is a factor of ten.

This test has as its target Voltage-dependent L-type calcium channel subunit alpha-1C (Cavia porcellus, UniProt O35505). Briefly: Antagonist activity at Cavia porcellus albino (guinea pig) calcium channel assessed as inhibition of KCl-induced ileal longitudinal smooth muscle contraction.

As for `COC(=O)C1=C(C)NC(C)=C(C(=O)OC)C1c1ccccc1[N+](=O)[O-]` [NIFEDIPINE], the pIC50 was 8.59.
